Reference: publication PMC11790905
Results are given in words; binding and its absence hold for the method and conditions named. Binding seen in cells or lysates may run through a third protein. Some results given as binding are weak or reduced against the parent protein; the word gives no strength.

Sequences of proteins named here, by UniProt entry; tags and fusion partners are left off. A change or cut given only in a name is not applied to a line headed by its entry.
UniProt P05556: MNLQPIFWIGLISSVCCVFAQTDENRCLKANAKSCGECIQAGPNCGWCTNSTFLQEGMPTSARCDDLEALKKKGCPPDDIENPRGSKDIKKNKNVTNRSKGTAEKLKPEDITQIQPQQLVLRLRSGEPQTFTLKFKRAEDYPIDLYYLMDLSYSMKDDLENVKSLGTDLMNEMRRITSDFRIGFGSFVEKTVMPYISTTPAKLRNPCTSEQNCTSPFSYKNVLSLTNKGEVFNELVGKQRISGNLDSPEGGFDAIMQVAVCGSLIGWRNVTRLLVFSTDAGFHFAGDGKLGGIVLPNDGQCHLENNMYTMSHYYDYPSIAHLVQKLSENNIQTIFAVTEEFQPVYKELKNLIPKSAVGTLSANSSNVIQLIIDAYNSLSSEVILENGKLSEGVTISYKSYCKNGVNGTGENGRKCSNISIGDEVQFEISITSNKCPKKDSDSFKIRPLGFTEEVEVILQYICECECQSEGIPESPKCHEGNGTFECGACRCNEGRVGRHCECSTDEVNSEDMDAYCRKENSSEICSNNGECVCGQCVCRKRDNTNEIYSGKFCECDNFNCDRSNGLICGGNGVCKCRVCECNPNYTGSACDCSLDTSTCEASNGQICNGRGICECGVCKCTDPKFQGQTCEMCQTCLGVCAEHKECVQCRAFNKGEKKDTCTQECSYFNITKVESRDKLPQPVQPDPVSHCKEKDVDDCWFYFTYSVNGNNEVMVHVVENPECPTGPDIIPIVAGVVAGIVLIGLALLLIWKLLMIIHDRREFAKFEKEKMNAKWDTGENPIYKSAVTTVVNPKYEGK
UniProt Q12809: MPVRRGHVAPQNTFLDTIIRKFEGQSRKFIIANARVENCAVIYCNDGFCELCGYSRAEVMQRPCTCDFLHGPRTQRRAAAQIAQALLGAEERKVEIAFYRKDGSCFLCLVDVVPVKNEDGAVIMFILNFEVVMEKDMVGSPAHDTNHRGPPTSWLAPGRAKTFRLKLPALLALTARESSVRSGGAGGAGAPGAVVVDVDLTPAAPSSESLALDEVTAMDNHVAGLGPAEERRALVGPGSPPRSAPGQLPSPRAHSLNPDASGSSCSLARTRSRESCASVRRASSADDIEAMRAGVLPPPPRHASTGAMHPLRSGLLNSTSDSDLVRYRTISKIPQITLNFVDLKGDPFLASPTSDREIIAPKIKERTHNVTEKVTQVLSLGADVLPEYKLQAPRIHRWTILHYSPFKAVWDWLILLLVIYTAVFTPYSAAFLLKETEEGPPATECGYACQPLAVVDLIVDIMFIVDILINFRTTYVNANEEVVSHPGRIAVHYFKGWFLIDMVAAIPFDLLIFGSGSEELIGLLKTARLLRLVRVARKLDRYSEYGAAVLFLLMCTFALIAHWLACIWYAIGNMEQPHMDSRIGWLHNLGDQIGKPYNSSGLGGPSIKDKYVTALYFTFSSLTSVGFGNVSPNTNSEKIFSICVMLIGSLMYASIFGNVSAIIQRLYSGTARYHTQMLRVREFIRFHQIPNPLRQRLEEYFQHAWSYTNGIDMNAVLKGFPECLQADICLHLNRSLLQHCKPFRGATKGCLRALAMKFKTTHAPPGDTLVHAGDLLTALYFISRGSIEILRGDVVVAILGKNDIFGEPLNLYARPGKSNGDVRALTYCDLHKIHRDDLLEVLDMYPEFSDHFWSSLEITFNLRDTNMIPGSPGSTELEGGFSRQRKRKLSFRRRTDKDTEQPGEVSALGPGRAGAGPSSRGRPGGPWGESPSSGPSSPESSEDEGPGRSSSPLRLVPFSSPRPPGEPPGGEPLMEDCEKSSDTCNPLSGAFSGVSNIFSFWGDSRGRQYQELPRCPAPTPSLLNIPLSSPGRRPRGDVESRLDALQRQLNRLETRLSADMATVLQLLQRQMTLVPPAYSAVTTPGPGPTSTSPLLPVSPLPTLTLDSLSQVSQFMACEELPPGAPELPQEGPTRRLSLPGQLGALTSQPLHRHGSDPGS
UniProt Q03135: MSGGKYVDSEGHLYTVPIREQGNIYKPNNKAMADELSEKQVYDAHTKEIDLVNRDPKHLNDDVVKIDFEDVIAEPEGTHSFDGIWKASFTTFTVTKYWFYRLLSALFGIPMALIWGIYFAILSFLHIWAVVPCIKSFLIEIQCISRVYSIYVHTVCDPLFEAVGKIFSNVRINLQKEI

B1: flotillin-1 (protein, UniProt O75955 1-427)
chain: MFFTCGPNEAMVVSGFCRSPPVMVAGGRVFVLPCIQQIQRISLNTLTLNVKSEKVYTRHGVPISVTGIAQVKIQGQNKEMLAAACQMFLGKTEAEIAHIALETLEGHQRAIMAHMTVEEIYKDRQKFSEQVFKVASSDLVNMGISVVSYTLKDIHDDQDYLHSLGKARTAQVQKDARIGEAEAKRDAGIREAKAKQEKVSAQYLSEIEMAKAQRDYELKKAAYDIEVNTRRAQADLAYQLQVAKTKQQIEEQRVQVQVVERAQQVAVQEQEIARREKELEARVRKPAEAERYKLERLAEAEKSQLIMQAEAEAASVRMRGEAEAFAIGARARAEAEQMAKKAEAFQLYQEAAQLDMLLEKLPQVAEEISGPLTSANKITLVSSGSGTMGAAKVTGEVLDILTRLPESVERLTGVSISQVNHKPLRTA

How the values were obtained:
[1] = biological target: β1 subunit of integrin receptors (human (endogenous in PANC-1, MiaPaCa2, BxPC3, HPDE, RLT-PSC, HEK293)) (UniProt P05556); assay: condition: only WT HEK 293 cells, which do not express hERG1; co-IP; IP with anti-β1 integrin mAb TS2/16 from total lysate of WT HEK 293 cells, which do not express hERG1 (control)
[2] = biological target: β1 subunit of integrin receptors (human (endogenous in PANC-1, MiaPaCa2, BxPC3, HPDE, RLT-PSC, HEK293)) (UniProt P05556); assay: condition: only cells seeded on BSA (where integrins are not activated); co-IP; IP with anti-β1 integrin mAb TS2/16 from total lysate of HEK-hERG1 cells seeded on BSA (integrins not activated) for 90 min
[3] = biological target: β1 subunit of integrin receptors (human (endogenous in PANC-1, MiaPaCa2, BxPC3, HPDE, RLT-PSC, HEK293)) (UniProt P05556); assay: co-IP; IP with anti-β1 integrin mAb TS2/16 from total lysate (1% NP-40) of HEK-hERG1 cells seeded on Fibronectin for 90 min; blots for hERG1, caveolin-1, flotillin-1; also with 5 mM MβCD for 20 min (less complex)
[4] = biological target: β1 subunit of integrin receptors (human (endogenous in PANC-1, MiaPaCa2, BxPC3, HPDE, RLT-PSC, HEK293)) (UniProt P05556); assay: co-IP; IP with anti-β1 integrin mAb TS2/16 from total lysates of PANC-1, MiaPaCa2 and BxPC3 cells (caveolin-1 and flotillin-1 also in HPDE and RLT-PSC) seeded on Fibronectin for 90 min; PANC-1 also with 5 mM MβCD for 20 min (less complex)
[5] = biological target: β1 subunit of integrin receptors (human (endogenous in PANC-1, MiaPaCa2, BxPC3, HPDE, RLT-PSC, HEK293)) (UniProt P05556); assay: condition: only lysates of normal HPDE cells and RLT-PSC stellate cells; co-IP; IP with anti-β1 integrin mAb TS2/16 from total lysates of normal HPDE cells and RLT-PSC pancreatic stellate cells after 90 min adhesion; blot for hERG1
[6] = biological target: hERG1 potassium channel (human ether-à-go-go-related gene 1), endogenous in PDAC cells (human (endogenous in PANC-1, MiaPaCa2, BxPC3)) (UniProt Q12809); assay: co-IP; IP with anti-hERG1 mAb from pooled Triton X-100-insoluble (4-6) and -soluble (9-11) sucrose-gradient fractions of PANC-1 cells in standard culture; blot with anti-β1 integrin pAb RM12
[7] = biological target: hERG1 potassium channel stably expressed in HEK293 cells (HEK-hERG1) (human) (UniProt Q12809); assay: co-IP; IP with anti-hERG1 mAb from pooled Triton X-100-insoluble (4-6) and -soluble (9-11) sucrose-gradient fractions of HEK-hERG1 cells seeded on Fibronectin for 90 min; blot with anti-β1 integrin pAb RM12
[8] = biological target: hERG1 potassium channel stably expressed in HEK293 cells (HEK-hERG1) (human) (UniProt Q12809); assay: co-IP; IP with anti-hERG1 mAb from total lysate of HEK-hERG1 cells seeded on Fibronectin for 90 min, untreated or treated with MβCD, scDb-hERG1-β1 or both; told only by 'All these effects were evident ... in HEK-hERG1 cells'
[9] = biological target: hERG1 potassium channel (human ether-à-go-go-related gene 1), endogenous in PDAC cells (human (endogenous in PANC-1, MiaPaCa2, BxPC3)) (UniProt Q12809); assay: co-IP; IP with anti-hERG1 mAb from total lysate of PANC-1 cells (MiaPaCa2 too by the text) seeded on Fibronectin for 90 min, untreated or treated with MβCD (5 mM), scDb-hERG1-β1 (20 µg/ml) or both (less co-precipitate); blots for PI3K p85 and β1 integrin

| binding [4] | Molecule | binding [1] | binding [2] | binding [3] | binding [5] | binding [6] | binding [7] | binding [8] | binding [9] |
| --- | --- | --- | --- | --- | --- | --- | --- | --- | --- |
| binds | caveolin-1 (from UniProt Q03135 1-178) | no binding | no binding | binds | – | – | – | – | – |
| – | hERG1 potassium channel stably expressed in HEK293 cells (HEK-hERG1) (from UniProt Q12809 1-1159) | – | no binding | binds | – | – | – | – | – |
| – | β1 subunit of integrin receptors (from UniProt P05556 21-798) | – | – | – | – | binds | binds | binds | binds |
| binds | B1 | no binding | no binding | binds | – | – | – | – | – |

| Molecule | binding [4] | binding [1] | binding [2] | binding [3] | binding [5] | binding [6] | binding [7] | binding [8] | binding [9] |
| --- | --- | --- | --- | --- | --- | --- | --- | --- | --- |
| hERG1 potassium channel (human ether-à-go-go-related gene 1), endogenous in PDAC cells (from UniProt Q12809 1-1159) | binds | – | – | – | no binding | – | – | – | – |
